Reference: PubChem BioAssay AID652259 (Drosophila RNAi Screening Center, 2013)
The screen tested about 22,000 reagents; shown is a random part of those that have a named target and a result. In the full data, 233 (1.1%) are marked active. 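Light values are raw, unnormalised plate reads; the ratio scores behind the reporter calls were not deposited.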 A plus sign joins genes that one reagent is predicted to hit. Not given: the amount of reagent, the time to read-out, the dose of the treatment.

Test: 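Identify new Wingless signalling regulators in fly cells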 (primary screen)
System: Drosophila clone 8 imaginal disc epithelial cells
Reagents: long dsRNA against Drosophila genes
Treatment: pathway stimulated by co-transfected Wingless expression plasmid
Measured: 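Firefly luciferase from a tcf-site Wingless reporter, measured alongside co-transfected Renilla luciferase that tracks transfection; pathway stimulated by a Wingless plasmid; the firefly-to-Renilla ratio is not deposited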
Direction: firefly reporter light: higher = more Wg reporter light, before normalisation; Renilla control light: higher = more transfected or surviving cells
Rule for the call: 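a knock-down is a candidate when at least two out of four statistical tests show it departing from its plate mean; one test alone signals a weak candidate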
Meaning of the calls: active = candidate regulator (raises or lowers reporter); inactive = not a candidate

no.	gene	amplicon	firefly reporter light, replicate 1	firefly reporter light, replicate 2	Renilla control light, replicate 1	Renilla control light, replicate 2	Call
1	CG4887 (GeneID 33304)	DRSC00670	3738	10008	1933	4381	inactive
2	CG4887 (GeneID 33304)	DRSC21563	7.73e5	7.30e5	3.92e5	3.64e5	inactive
3	ZnT33D (GeneID 326167)	DRSC02591	2442	5616	872	2147	inactive
4	unc80 (GeneID 43324)	DRSC15329	6661		2432		inactive
5	eIF4G1 (GeneID 43839)	DRSC17218	2839	4881	844	1973	inactive
6	CG15330 (GeneID 31715)	DRSC18014	11920		6103		inactive
7	Phae2 (GeneID 34638)	DRSC02555	3013	6579	1224	2923	inactive
8	Fic (GeneID 33897)	DRSC03247	13040		5488		inactive
9	CG42580 (GeneID 8673961)	DRSC20397	3926		1451		inactive
10	CG30016 (GeneID 246393)	DRSC05242	14445		9608		inactive
11	Cyp9h1 (GeneID 36412)	DRSC07391	6360		1952		inactive
12	mex1 (GeneID 39677)	DRSC11368	7684		3769		inactive
13	Tmlh (GeneID 42421)	DRSC15563	15298		3539		inactive
14	CG32109 (GeneID 39444)	DRSC09816	7490		3392		inactive
15	CG9467 (GeneID 41207)	DRSC16498	7593		2592		inactive
16	CG5281 (GeneID 41375)	DRSC15761	13520		2488		inactive
17	ari-1 (GeneID 32796)	DRSC20308	25243		14316		inactive
18	ari-1 (GeneID 32796)	DRSC21603	6.45e5	6.81e5	3.80e5	2.66e5	inactive
19	CG42340 (GeneID 7354472)	DRSC17458	3120		1347		inactive
20	CG42340 (GeneID 7354472)	DRSC17841	22928		11293		inactive
21	CG42340 (GeneID 7354472)	DRSC18305	22282		10266		inactive
22	CG42340 (GeneID 7354472)	DRSC21619	6.03e5	6.22e5	3.72e5	2.42e5	inactive
23	CG34214 (GeneID 5740774)	DRSC04490	9968		2957		inactive
24	clumsy (GeneID 35394)	DRSC03111	3112	6368	1090	2570	inactive
25	Wnt5 (GeneID 32838)	DRSC20300	13660		6587		inactive
26	CG43288 (GeneID 12798106)	DRSC17314	3109		1430		inactive
27	Enoph (GeneID 40630)	DRSC12201	17020		3574		inactive
28	Tengl4 (GeneID 41321)	DRSC15620	18618		4420		inactive
29	CheA29a (GeneID 246659)	DRSC21486	5.25e5	4.90e5	2.10e5	1.79e5	inactive
30	CG18301 (GeneID 34451)	DRSC02662	2394	8946	572	3504	inactive
31	N (GeneID 31293)	DRSC18685	15480		9296		inactive
32	CG12744 (GeneID 36024)	DRSC06164	6496		1463		inactive
33	Snoo (GeneID 5740414)	DRSC01008	19041		11991		inactive
34	Snoo (GeneID 5740414)	DRSC03004	9474		3427		inactive
35	Snoo (GeneID 5740414)	DRSC03035	2152	7057	679	3501	inactive
36	Vha100-2 (GeneID 42216)	DRSC14152	3147	8982	1137	2208	inactive
37	CG31251 (GeneID 318645)	DRSC16247	12851		1424		inactive
38	Marf1 (GeneID 49895)	DRSC03747	2337	6019	823	2755	inactive
39	Marf1 (GeneID 49895)	DRSC03774	17173		8170		inactive
40	Bro (GeneID 38202)	DRSC08149	5949		2432		inactive
41	Trf4 (GeneID 33452)	DRSC00729	2896	7456	1031	2845	inactive
42	CG10184 (GeneID 42783)	DRSC14204	2903	6451	1414	1328	inactive
43	CG6650 (GeneID 39555)	DRSC10685	4227		1730		inactive
44	Sas-6 (GeneID 43555)	DRSC15061	7802		3026		inactive
45	CG13461 (GeneID 39635)	DRSC10008	4203		2004		inactive
46	CG15084 (GeneID 37178)	DRSC06515	22556	6.77e5	7341	3.74e5	inactive
47	CG15084 (GeneID 37178)	DRSC21403	3.71e5	4.10e5	1.59e5	1.36e5	inactive
48	CG31926 (GeneID 326174)	DRSC00295	2345	7011	1223	2656	inactive
49	klu (GeneID 39228)	DRSC11357	5335		2128		inactive
50	CG13685 (GeneID 38869)	DRSC10043	1658	7314	1552	2940	inactive
51	kel (GeneID 35084)	DRSC03554	2835	4598	1219	2055	inactive
52	Skp2 + CG14645	DRSC12231	19379		6312		inactive
53	CG33339 (GeneID 2768681)	DRSC22917	6.23e5	6.08e5	2.78e5	2.33e5	inactive
54	Sfp53D (GeneID 8673983)	DRSC05625	14717		12823		inactive
55	Naa30B (GeneID 317976)	DRSC08245	3713		2464		inactive
56	bin3 (GeneID 35552)	DRSC04919	3767	7875	992	2224	inactive
57	ImpE1 (GeneID 45879)	DRSC11195	2153	8791	1532	3972	inactive
58	ImpE1 (GeneID 45879)	DRSC11196	1494	7884	1013	2818	inactive
59	dco (GeneID 43673)	DRSC16929	3664	8086	892	2484	inactive
60	Zip42C.2 (GeneID 35580)	DRSC05004	3853	11077	597	3014	inactive
61	CG6654 (GeneID 41831)	DRSC16084	5908		2304		inactive
62	jb (GeneID 33032)	DRSC20531	15835		10029		inactive
63	Fis1 (GeneID 49892)	DRSC07772	6976		3146		inactive
64	Vha68-2 (GeneID 45012)	DRSC02721	4425	14328	1435	4540	inactive
65	Atg18a (GeneID 38913)	DRSC10943	5336		1700		inactive
66	Lamtor5 (GeneID 31137)	DRSC18491	26066		16181		inactive
67	sesB (GeneID 32007)	DRSC20371	18913		7451		inactive
68	Sld5 (GeneID 43166)	DRSC14892	20976		17109		inactive
69	clt (GeneID 117300)	DRSC04621	2490	6507	755	2378	inactive
70	ppk9 (GeneID 37498)	DRSC04134	2947	6601	1014	2657	inactive
71	ppk9 (GeneID 37498)	DRSC04135	3645	8188	1136	2587	inactive
72	Semp1 (GeneID 34914)	DRSC01874	3703	7482	1243	3408	inactive
73	CG13048 (GeneID 39789)	DRSC09929	7469		2076		inactive

An excerpt of the results above, as a working copy:
no.	gene	amplicon	firefly reporter light, replicate 1	firefly reporter light, replicate 2	Renilla control light, replicate 1	Renilla control light, replicate 2	Call
36	Vha100-2 (GeneID 42216)	DRSC14152	3147	8982	1137	2208	inactive
37	CG31251 (GeneID 318645)	DRSC16247	12851		1424		inactive
38	Marf1 (GeneID 49895)	DRSC03747	2337	6019	823	2755	inactive
39	Marf1 (GeneID 49895)	DRSC03774	17173		8170		inactive
40	Bro (GeneID 38202)	DRSC08149	5949		2432		inactive
41	Trf4 (GeneID 33452)	DRSC00729	2896	7456	1031	2845	inactive
42	CG10184 (GeneID 42783)	DRSC14204	2903	6451	1414	1328	inactive
